The list is a part of this screen's results and no random one: it gathers tests that were run many times, whatever their T/C, doses with no T/C, and many T/C values between a quarter and a half above the control. Other doses and runs of a compound stand elsewhere. T/C is the treated group as % of the vehicle group. Schedules are NCI's codes, taken here to give the interval after Q, in days (D) or hours (H), and the number of doses after X. Some doses were run more than once; the results are listed from low to high. Some entries give survivors of the animals treated and no T/C: the source files T/C as zero there, which appears to mark a toxic dose or a test without result, not a measured value. Some survivor counts are full or nearly so, which does not show that the dose was tolerated: survival well below the control is almost never listed, so the zero probably covers shortened survival too. Survivors were counted at the toxicity check, usually on the fifth day, unless a day is given; later deaths do not show. Where survival is the endpoint, this PubChem deposit counts one and a half times the control or more as active, and values a quarter to a half above the control carry no call in these data; other NCI protocols may use other cut-offs. Some T/C values are followed by the survivors on the day toxicity was checked, most often the fifth; without a count, all were alive then. Counts like (3×) say how often a value occurs here.

This test deals with BDF1 mice, B16 melanoma s.c., survival/tumor T/C. Nature of the test: NCI In Vivo Anticancer Drug Screen. Data for tumor model B16 Melanoma (subcutaneous) in B6D2F1 (BDF1) mice. As to the method: The antitumor activity of compounds was measured in mice bearing transplantable tumors. Survival or tumor size were measured and the results are expressed as the measurement made in the treated group (T) divided by the measurement made in the vehicle treated control group (C). The tumor model used in this assay is B16 Melanoma (subcutaneous) in B6D2F1 (BDF1) mice

Where [1] appears, read: T/C endpoint: median survival time, dose: 0.13 mg/kg/injection, schedule: Q01DX009 (ip), vehicle: saline, higher T/C = longer survival.
[2] abbreviates: T/C endpoint: median survival time, dose: 2.0 mg/kg/injection, schedule: Q01DX009 (ip), vehicle: saline, higher T/C = longer survival.
Setting [3] is: T/C endpoint: median survival time, dose: 400.0 mg/kg/injection, schedule: Q01DX009 (ip), vehicle: saline, higher T/C = longer survival.
[4] abbreviates: T/C endpoint: median survival time, dose: 16.0 mg/kg/injection, schedule: Q01DX009 (ip), vehicle: Klucel (hydroxypropylcellulose) (HPC), higher T/C = longer survival.
[5] abbreviates: T/C endpoint: median survival time, dose: 60.0 mg/kg/injection, schedule: Q01DX001 (ip), vehicle: Klucel (hydroxypropylcellulose) (HPC), higher T/C = longer survival.

For `COc1cccc2c1C(=O)c1c(O)c3c(c(O)c1C2=O)C[C@@](O)(C(C)=O)C[C@@H]3OC1CC(N)C(O)C(C)O1` (stereo partly drawn), the T/C was 87, 90, 102, 111 % of control under setting [1]; 88, 89, 95, 98 (2×), 107, 109, 146 % of control (T/C endpoint: median survival time, dose: 0.25 mg/kg/injection, schedule: Q01DX009 (ip), vehicle: saline, higher T/C = longer survival); 91, 94, 95, 97, 101, 102, 107, 111 % of control (T/C endpoint: median survival time, dose: 0.5 mg/kg/injection, schedule: Q01DX009 (ip), vehicle: saline, higher T/C = longer survival); 88, 94, 100, 103, 109, 110, 128, 137 % of control (T/C endpoint: median survival time, dose: 1.0 mg/kg/injection, schedule: Q01DX009 (ip), vehicle: saline, higher T/C = longer survival); 87, 94, 111 % of control (2×) under setting [2]; 136 % of control (T/C endpoint: median tumor weight (est.), dose: 0.25 mg/kg/injection, schedule: Q01DX009 (ip), vehicle: saline, evaluated on day 15, higher T/C = larger tumour). Further, the T/C (T/C endpoint: median tumor weight (est.), dose: 0.5 mg/kg/injection, schedule: Q01DX009 (ip), vehicle: saline, evaluated on day 15, higher T/C = larger tumour) is 132 and 140 % of control. The survivor count is, setting by setting: under setting [1], 6 of 6; under setting [2], 5 of 6, 10 of 10, 6 of 6; (T/C endpoint: median survival time, dose: 4.0 mg/kg/injection, schedule: Q01DX009 (ip), vehicle: saline, higher T/C = longer survival) 10 of 10.

With `CC1(C)N=C(N)N=C(N)N1c1ccc(CCC(=O)Nc2ccc(S(=O)(=O)F)cc2)cc1`, the survivor count reads like this: (T/C endpoint: median survival time, dose: 50.0 mg/kg/injection, schedule: Q01DX009 (ip), vehicle: saline, higher T/C = longer survival) 6 of 6; (T/C endpoint: median survival time, dose: 100.0 mg/kg/injection, schedule: Q01DX009 (ip), vehicle: saline, higher T/C = longer survival) 6 of 6; (T/C endpoint: median survival time, dose: 200.0 mg/kg/injection, schedule: Q01DX009 (ip), vehicle: saline, higher T/C = longer survival) 6 of 6; under setting [3], 6 of 6.

In the case of `O=C1CSC(=S)N1c1ccco1`, the T/C (T/C endpoint: median survival time, dose: 100.0 mg/kg/injection, schedule: Q01DX009 (ip), vehicle: Klucel (hydroxypropylcellulose) (HPC), higher T/C = longer survival) was 126 % of control and the T/C (T/C endpoint: median survival time, dose: 200.0 mg/kg/injection, schedule: Q01DX009 (ip), vehicle: Klucel (hydroxypropylcellulose) (HPC), higher T/C = longer survival) is 132 % of control.

For `C[n+]1c(/C=C\C=C\N2CCCCC2)sc2ccccc21`, the T/C was 135 % of control (T/C endpoint: median survival time, dose: 0.05 mg/kg/injection, schedule: Q01DX009 (ip), vehicle: Klucel (hydroxypropylcellulose) (HPC), higher T/C = longer survival) and 145 % of control (T/C endpoint: median survival time, dose: 0.1 mg/kg/injection, schedule: Q01DX009 (ip), vehicle: Klucel (hydroxypropylcellulose) (HPC), higher T/C = longer survival).

Take `CN1c2c(nc(N)[nH]c2=O)NCC1CCNc1ccc(C(=O)NC(CCC(=O)O)C(=O)O)cc1` (stereo not drawn): the T/C reads like this: under setting [3], 147 % of control; (T/C endpoint: median survival time, dose: 400.0 mg/kg/injection, schedule: Q04DX003 (ip), vehicle: saline, higher T/C = longer survival) 128 % of control; (T/C endpoint: median survival time, dose: 600.0 mg/kg/injection, schedule: Q01DX009 (ip), vehicle: saline, higher T/C = longer survival) 143 % of control; (T/C endpoint: median survival time, dose: 900.0 mg/kg/injection, schedule: Q01DX009 (ip), vehicle: saline, evaluated on day 50, higher T/C = longer survival) 130 % of control; (T/C endpoint: median survival time, dose: 900.0 mg/kg/injection, schedule: Q01DX009 (ip), vehicle: saline, evaluated on day 60, higher T/C = longer survival) 131 % of control; (T/C endpoint: median survival time, dose: 1200.0 mg/kg/injection, schedule: Q01DX009 (ip), vehicle: saline, higher T/C = longer survival) 149 % of control. Further, the T/C is, setting by setting: (T/C endpoint: median survival time, dose: 1200.0 mg/kg/injection, schedule: Q04DX003 (ip), vehicle: saline, higher T/C = longer survival) 126 % of control; (T/C endpoint: median survival time, dose: 1800.0 mg/kg/injection, schedule: Q01DX001 (ip), vehicle: saline, higher T/C = longer survival) 142 % of control.

As to `O=C1NC2(CCCCC2)C(=O)N1CCN(CCCl)CCCl`, the survivor count reads like this: (T/C endpoint: median survival time, dose: 12.0 mg/kg/injection, schedule: Q01DX009 (ip), vehicle: saline with Tween-80, higher T/C = longer survival) 9 of 10; (T/C endpoint: median survival time, dose: 24.0 mg/kg/injection, schedule: Q01DX009 (ip), vehicle: saline with Tween-80, higher T/C = longer survival) 9 of 10.

Turning to `Cc1c[n+]2c3ccccc3c3ccccc3c2s1`, the T/C (T/C endpoint: median survival time, dose: 5.0 mg/kg/injection, schedule: Q01DX009 (ip), vehicle: Klucel (hydroxypropylcellulose) (HPC), higher T/C = longer survival) was 129 % of control. Besides, the survivor count (T/C endpoint: median survival time, dose: 10.0 mg/kg/injection, schedule: Q01DX009 (ip), vehicle: Klucel (hydroxypropylcellulose) (HPC), higher T/C = longer survival) is listed as 10 of 10 and the survivor count (T/C endpoint: median survival time, dose: 40.0 mg/kg/injection, schedule: Q01DX009 (ip), vehicle: Klucel (hydroxypropylcellulose) (HPC), higher T/C = longer survival) is listed as 0 of 10.

Take `CC1CCC(NC(=O)N(CCCl)N=O)CC1` (stereo not drawn): the T/C reads like this: (T/C endpoint: median survival time, dose: 1.0 mg/kg/injection, schedule: Q02DX009 (ip), vehicle: Klucel (hydroxypropylcellulose) (HPC), higher T/C = longer survival) 142 % of control; (T/C endpoint: median survival time, dose: 2.0 mg/kg/injection, schedule: Q01DX009 (ip), vehicle: Klucel (hydroxypropylcellulose) (HPC), higher T/C = longer survival) 92, 103, 105, 111 (2×), 115 % of control; (T/C endpoint: median survival time, dose: 4.0 mg/kg/injection, schedule: Q01DX009 (ip), vehicle: Klucel (hydroxypropylcellulose) (HPC), higher T/C = longer survival) 86 [5 of 6 alive], 96 [5 of 6 alive], 97, 105 [5 of 6 alive], 113, 117 % of control; (T/C endpoint: median survival time, dose: 4.0 mg/kg/injection, schedule: Q02DX009 (ip), vehicle: Klucel (hydroxypropylcellulose) (HPC), higher T/C = longer survival) 134 % of control; (T/C endpoint: median survival time, dose: 5.0 mg/kg/injection, schedule: Q04DX003 (ip), vehicle: other, higher T/C = longer survival) 149 % of control; (T/C endpoint: median survival time, dose: 7.5 mg/kg/injection, schedule: Q01DX001 (ip), vehicle: Klucel (hydroxypropylcellulose) (HPC), higher T/C = longer survival) 126 % of control. The T/C was 88, 111, 120 [5 of 6 alive], 139, 155, 163 % of control (T/C endpoint: median survival time, dose: 8.0 mg/kg/injection, schedule: Q01DX009 (ip), vehicle: Klucel (hydroxypropylcellulose) (HPC), higher T/C = longer survival); 139 % of control [9 of 10 alive on day 58] (T/C endpoint: median survival time, dose: 10.0 mg/kg/injection, schedule: Q04DX003 (ip), vehicle: other, evaluated on day 58, higher T/C = longer survival); 141 % of control (T/C endpoint: median survival time, dose: 10.0 mg/kg/injection, schedule: Q04DX003 (ip), vehicle: other, evaluated on day 60, higher T/C = longer survival); 98, 105, 108, 117, 124, 126, 127, 133 % of control (T/C endpoint: median survival time, dose: 15.0 mg/kg/injection, schedule: Q01DX001 (ip), vehicle: Klucel (hydroxypropylcellulose) (HPC), higher T/C = longer survival); 127 % of control (T/C endpoint: median survival time, dose: 16.0 mg/kg/injection, schedule: Q01DX001 (ip), vehicle: saline with Tween-80, higher T/C = longer survival); 157 % of control under setting [4]. Further, the T/C (T/C endpoint: median survival time, dose: 24.0 mg/kg/injection, schedule: Q01DX001 (ip), vehicle: saline with Tween-80, higher T/C = longer survival) was 131 % of control; the T/C (T/C endpoint: median survival time, dose: 30.0 mg/kg/injection, schedule: Q01DX001 (ip), vehicle: Klucel (hydroxypropylcellulose) (HPC), higher T/C = longer survival) is 103, 104, 119, 128, 134, 137, 162, 186 % of control; the T/C (T/C endpoint: median survival time, dose: 32.0 mg/kg/injection, schedule: Q01DX001 (ip), vehicle: saline with Tween-80, higher T/C = longer survival) is 127 % of control; the T/C under setting [5] was 107, 111 [5 of 6 alive], 142, 151, 173, 189 % of control. Further, the survivor count was 9 of 10 (T/C endpoint: median survival time, dose: 4.0 mg/kg/injection, schedule: Q01DX001 (ip), vehicle: saline with Tween-80, higher T/C = longer survival); 6 of 6 under setting [4]; 8 of 8 (T/C endpoint: median survival time, dose: 40.0 mg/kg/injection, schedule: Q01DX001 (ip), vehicle: other, higher T/C = longer survival); 10 of 10 (T/C endpoint: median survival time, dose: 40.0 mg/kg/injection, schedule: Q04DX003 (ip), vehicle: other, higher T/C = longer survival); 6 of 6 under setting [5]; 8 of 10 and 10 of 10 (T/C endpoint: median survival time, dose: 64.0 mg/kg/injection, schedule: Q01DX001 (ip), vehicle: saline with Tween-80, higher T/C = longer survival). Moreover, the survivor count was 7 of 10 and 10 of 10 (T/C endpoint: median survival time, dose: 128.0 mg/kg/injection, schedule: Q01DX001 (ip), vehicle: saline with Tween-80, higher T/C = longer survival); 0 of 10 and 10 of 10 (T/C endpoint: median survival time, dose: 256.0 mg/kg/injection, schedule: Q01DX001 (ip), vehicle: saline with Tween-80, higher T/C = longer survival).

`O=NN(CCCl)C(=O)NCCO`: the survivor count is, setting by setting: (T/C endpoint: median survival time, dose: 7.2 mg/kg/injection, schedule: Q01DX007 (ip), vehicle: water, higher T/C = longer survival) 3 of 10 on day 55; (T/C endpoint: median survival time, dose: 12.0 mg/kg/injection, schedule: Q01DX007 (ip), vehicle: water, higher T/C = longer survival) 3 of 10 on day 55; (T/C endpoint: median survival time, dose: 20.0 mg/kg/injection, schedule: Q01DX007 (ip), vehicle: water, higher T/C = longer survival) 1 of 10 on day 55.

Values taken from PubChem BioAssay AID194 (DTP/NCI, 2004).
